PubChem BioAssay AID720505 – Drosophila RNAi Screening Center, 2013

Screen: 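Genes needed for store-operated calcium entry in fly cells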 (primary screen)
System: Drosophila S2R+ cells
Knock-down reagent: long dsRNA against Drosophila genes
Challenge: thapsigargin (2 µM) in calcium-free buffer to empty internal stores, then 2 mM calcium added back
Measured: 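Fluo-4 signal in 384-well plates read on a FLIPR after thapsigargin (2 µM, calcium-free) store depletion and 2 mM calcium add-back; unnormalised mean endpoint per well; screen run twice, selected wells retested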
Reading the numbers: calcium signal and retest calcium signal: higher = more calcium entry after store depletion
Rule for the call: 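About 1500 genes called as lowering calcium entry, by varying amounts, judged against per-plate control wells with STIM1 as positive and Rho1 as negative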
Meaning of the calls: active = called as lowering calcium entry; inactive = not called
The deposit covers about 20,000 reagents; this is a random part of those that have a named target and a result. In the full data, about 2,100 (10%) are marked active. 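Raw plate signals without normalisation; calls rest on control-based scores that were not deposited; replicate 2 separates called from uncalled poorly.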 The numbers tell different reagents against one gene apart. Not given: the amount of reagent, the time to read-out.

Sbf (SET domain binding factor) showed calcium signal, replicate 1 = 99.3; calcium signal, replicate 2 = 122; inactive.
Pgant5 (Polypeptide N-Acetylgalactosaminyltransferase 5) showed calcium signal, replicate 1 = 94.4; calcium signal, replicate 2 = 110; inactive.
Srpk79D (Serine-arginine protein kinase at 79D) #1 scored calcium signal, replicate 1 = 118; calcium signal, replicate 2 = 107; inactive.
Knock-down of Srpk79D (Serine-arginine protein kinase at 79D) #2 came out at: calcium signal, replicate 1 = 107; calcium signal, replicate 2 = 109; inactive.
With knock-down of CG18666, the record shows calcium signal, replicate 1 = 172; calcium signal, replicate 2 = 136; inactive.
For bdwf (bedwarfed), the entry reads calcium signal, replicate 1 = 182; calcium signal, replicate 2 = 310; inactive.
With knock-down of CG1542, the record shows calcium signal, replicate 1 = 81.5; calcium signal, replicate 2 = 90.9; inactive.
For pcm (pacman), the values are calcium signal, replicate 1 = 73.8; calcium signal, replicate 2 = 117; active.
CG14591 gave calcium signal, replicate 1 = 152; calcium signal, replicate 2 = 204; inactive.
BORCS5 (BLOC-1 related complex subunit 5) gave calcium signal, replicate 1 = 132; calcium signal, replicate 2 = 156; inactive.
After knock-down of CG31495 the results were calcium signal, replicate 1 = 114; calcium signal, replicate 2 = 176; inactive.

Looked up above:
Result for Srpk79D (Serine-arginine protein kinase at 79D) #2 in “activity call”: inactive
Entry for CG14591 in “calcium signal, replicate 1”: 152
Result for CG1542 in “calcium signal, replicate 2”: 90.9
CG31495, calcium signal, replicate 2 = 176

Additional reagents:
Hpd (4-hydroxyphenylpyruvate dioxygenase) scored calcium signal, replicate 1 = 117; calcium signal, replicate 2 = 91.9; inactive.
After knock-down of CG13051 the results were calcium signal, replicate 1 = 84.6; calcium signal, replicate 2 = 157; inactive.
With knock-down of CG12857, the screen gave calcium signal, replicate 1 = 109; calcium signal, replicate 2 = 153; inactive.
Trm7-32 (tRNA methyltransferase 7-32) gave calcium signal, replicate 1 = 231; calcium signal, replicate 2 = 313; inactive.
Against mars the deposit lists calcium signal, replicate 1 = 158; calcium signal, replicate 2 = 167; retest calcium signal, replicate 1 = 104; retest calcium signal, replicate 2 = 145; inactive.
amd (alpha methyl dopa-resistant) #1 showed calcium signal, replicate 1 = 145; calcium signal, replicate 2 = 134; retest calcium signal, replicate 1 = 114; retest calcium signal, replicate 2 = 108; inactive.
After knock-down of amd (alpha methyl dopa-resistant) #2 the results were calcium signal, replicate 1 = 187; calcium signal, replicate 2 = 105; inactive.
With knock-down of ND-B14.5A (NADH dehydrogenase (ubiquinone) B14.5 A subunit) the results were calcium signal, replicate 1 = 67; calcium signal, replicate 2 = 129; inactive.
CG42366 #1 scored calcium signal, replicate 1 = 166; calcium signal, replicate 2 = 149; inactive.
Silencing of CG42366 #2 resulted in: calcium signal, replicate 1 = 154; calcium signal, replicate 2 = 169; inactive.
CG8204 gave calcium signal, replicate 1 = 88.6; calcium signal, replicate 2 = 168; inactive.
mthl9 (methuselah-like 9) scored calcium signal, replicate 1 = 81.3; calcium signal, replicate 2 = 64.5; inactive.
Lar (Leukocyte-antigen-related-like) #1 showed calcium signal, replicate 1 = 142; calcium signal, replicate 2 = 99.1; inactive.
Against Lar (Leukocyte-antigen-related-like) #2, the entry reads calcium signal, replicate 1 = 100; calcium signal, replicate 2 = 104; inactive.
Against snky (sneaky), the entry reads calcium signal, replicate 1 = 98.8; calcium signal, replicate 2 = 78.4; inactive.
Silencing of fkh (fork head) resulted in: calcium signal, replicate 1 = 154; calcium signal, replicate 2 = 198; inactive.
Silencing of CG6465 gave: calcium signal, replicate 1 = 101; calcium signal, replicate 2 = 158; inactive.
